Test results reported in publication doi:10.1101/2020.08.14.246132.
These are yes or no findings as the source states them, for the method shown. Binding seen in cells or lysates may run through a third protein. Some entries that bind do so weakly or less than the wild type. Where a sequence is shown, tags or fusion partners need not be part of it.

Molecular target: T1, Full-length human NLRP1 with a C-terminal FLAG tag (NLRP1-FLAG), wild type (human), Q9C000
T1 chain: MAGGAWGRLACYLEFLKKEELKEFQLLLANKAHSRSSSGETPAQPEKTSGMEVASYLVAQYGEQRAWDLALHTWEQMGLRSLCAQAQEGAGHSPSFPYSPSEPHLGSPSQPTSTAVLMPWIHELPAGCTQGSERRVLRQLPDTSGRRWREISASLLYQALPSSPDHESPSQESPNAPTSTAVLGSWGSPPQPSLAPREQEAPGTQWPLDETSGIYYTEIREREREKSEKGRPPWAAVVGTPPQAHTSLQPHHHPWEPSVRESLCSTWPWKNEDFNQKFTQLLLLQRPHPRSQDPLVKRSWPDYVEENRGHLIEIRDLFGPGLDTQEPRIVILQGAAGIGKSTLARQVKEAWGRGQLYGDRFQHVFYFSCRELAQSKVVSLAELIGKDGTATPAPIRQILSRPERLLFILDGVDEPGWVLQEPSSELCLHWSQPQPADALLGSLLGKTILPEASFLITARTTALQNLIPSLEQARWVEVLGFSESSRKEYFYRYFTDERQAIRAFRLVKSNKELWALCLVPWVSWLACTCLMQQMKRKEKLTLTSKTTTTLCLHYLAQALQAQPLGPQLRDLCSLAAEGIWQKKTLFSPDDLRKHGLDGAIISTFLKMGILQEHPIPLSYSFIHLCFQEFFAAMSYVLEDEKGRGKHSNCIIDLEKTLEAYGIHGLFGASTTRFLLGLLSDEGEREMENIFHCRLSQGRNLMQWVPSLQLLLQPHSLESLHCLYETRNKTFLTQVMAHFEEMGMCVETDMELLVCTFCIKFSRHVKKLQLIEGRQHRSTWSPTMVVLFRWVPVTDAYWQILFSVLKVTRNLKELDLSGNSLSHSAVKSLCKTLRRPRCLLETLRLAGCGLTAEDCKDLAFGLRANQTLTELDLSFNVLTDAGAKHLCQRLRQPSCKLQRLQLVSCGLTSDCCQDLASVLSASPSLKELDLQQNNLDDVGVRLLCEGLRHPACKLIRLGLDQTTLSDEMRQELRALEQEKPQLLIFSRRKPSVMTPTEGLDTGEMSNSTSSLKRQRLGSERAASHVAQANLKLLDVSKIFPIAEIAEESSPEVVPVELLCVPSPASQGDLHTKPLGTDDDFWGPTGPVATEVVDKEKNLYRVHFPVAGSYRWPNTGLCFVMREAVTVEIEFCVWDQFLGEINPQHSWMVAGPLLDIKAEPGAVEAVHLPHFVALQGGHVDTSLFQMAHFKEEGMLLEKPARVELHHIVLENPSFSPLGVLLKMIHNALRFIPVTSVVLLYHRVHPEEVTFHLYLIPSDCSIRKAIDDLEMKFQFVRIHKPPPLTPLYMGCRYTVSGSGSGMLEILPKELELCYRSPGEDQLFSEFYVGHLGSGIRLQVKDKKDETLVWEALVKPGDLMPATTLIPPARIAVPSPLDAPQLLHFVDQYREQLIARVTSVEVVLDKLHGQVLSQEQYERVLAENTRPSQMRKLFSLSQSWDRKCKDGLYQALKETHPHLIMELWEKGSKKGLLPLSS
Test: co-IP
Details: remark: other sources report otherwise

binding: binds
B1: DPP9, short isoform, N-terminal His tag (His-TEV-DPP9), wild type, for co-immunoprecipitation, Q86TI2-1 1-863 (enzyme)
chain: MATTGTPTADRGDAAATDDPAARFQVQKHSWDGLRSIIHGSRKYSGLIVNKAPHDFQFVQKTDESGPHSHRLYYLGMPYGSRENSLLYSEIPKKVRKEALLLLSWKQMLDHFQATPHHGVYSREEELLRERKRLGVFGITSYDFHSESGLFLFQASNSLFHCRDGGKNGFMVSPMKPLEIKTQCSGPRMDPKICPADPAFFSFINNSDLWVANIETGEERRLTFCHQGLSNVLDDPKSAGVATFVIQEEFDRFTGYWWCPTASWEGSEGLKTLRILYEEVDESEVEVIHVPSPALEERKTDSYRYPRTGSKNPKIALKLAEFQTDSQGKIVSTQEKELVQPFSSLFPKVEYIARAGWTRDGKYAWAMFLDRPQQWLQLVLLPPALFIPSTENEEQRLASARAVPRNVQPYVVYEEVTNVWINVHDIFYPFPQSEGEDELCFLRANECKTGFCHLYKVTAVLKSQGYDWSEPFSPGEDEFKCPIKEEIALTSGEWEVLARHGSKIWVNEETKLVYFQGTKDTPLEHHLYVVSYEAAGEIVRLTTPGFSHSCSMSQNFDMFVSHYSSVSTPPCVHVYKLSGPDDDPLHKQPRFWASMMEAASCPPDYVPPEIFHFHTRSDVRLYGMIYKPHALQPGKKHPTVLFVYGGPQVQLVNNSFKGIKYLRLNTLASLGYAVVVIDGRGSCQRGLRFEGALKNQMGQVEIEDQVEGLQFVAEKYGFIDLSRVAIHGWSYGGFLSLMGLIHKPQVFKVAIAGAPVTVWMAYDTGYTERYMDVPENNQHGYEAGSVALHVEKLPNEPNRLLILHGFLDENVHFFHTNFLVSQLIRAGKPYQLQIYPNERHSIRCPESGEHYEVTLLHFLQEYL
